The values that follow come from patent US20090221505A1, “COMPOSITIONS AND METHODS RELATED TO SYNCHRONOUS SELECTION OF HOMING PEPTIDES FOR MULTIPLE TISSUES BY IN VIVO PHAGE DISPLAY” (priority 2004, published 2009).

These are yes or no findings as the source states them, for the method shown. Some binding calls cover weakened binding; strength is not graded here.

This experiment concerns the target T1, purified recombinant rabbit PRLR (Protein Laboratories Rehovot, Israel) (rabbit) (UniProt P14787).
T1 sequence (looked up): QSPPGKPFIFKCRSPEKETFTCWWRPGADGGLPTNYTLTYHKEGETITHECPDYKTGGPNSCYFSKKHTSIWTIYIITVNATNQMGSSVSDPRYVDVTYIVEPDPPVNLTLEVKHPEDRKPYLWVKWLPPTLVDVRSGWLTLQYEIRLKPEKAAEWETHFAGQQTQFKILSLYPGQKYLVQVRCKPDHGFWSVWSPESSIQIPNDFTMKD
The experiment can be described thus: phage biopanning on immobilized recombinant rabbit PRLR.

B1: phage displaying motif LPTLSLN (peptide, not shown: large carriers)
peptide: LPTLSLN
In the case of B1, the binding entry is “binds”.

B2: phage displaying motif QVHSSAY (peptide, not shown: large carriers)
peptide: QVHSSAY
With B2, the binding result is given as “binds”.

B3: phage displaying motif VFSDYKR (peptide, not shown: large carriers)
peptide: VFSDYKR
Regarding B3, the binding result is “binds”.

B4: phage displaying motif SGPTGRA (peptide, not shown: large carriers)
peptide: SGPTGRA
As to B4, the binding result is reported as “binds”.

B5: phage displaying motif SGATGRA (peptide, not shown: large carriers)
peptide: SGATGRA
Take B5: the binding result is listed as “binds”.
